Construct, isoform or probe ends are uncertain for at least one entry. At least one result comes from cells or an extract, where the contact may be indirect. For part of these data: No signal at the amounts used counts as a negative.
Tests used:
[1] = tested on: E2F (endogenous E2F protein in cell extract); assay: EMSA; conditions: 4 C, 20 min, protein in an extract, label: 32P
[2] = tested on: E2F (endogenous E2F protein in cell extract); assay: competition with a labelled probe; conditions: 100x unlabeled shuffled duplex did not compete the complex; protein in an extract; variant of SEQ ID NO:1 E2F decoy

## TTTGGCGCTTTCGCGCTTTCCCGC (double strand) [SEQ ID NO:1 E2F decoy]
[1]; complex abolished by 100x unlabeled SEQ ID NO:1 or 3
  binding result: binds

## GCTTTCCCGCCAAATTTCGCGCGAAAGC (double strand) [SEQ ID NO:3 E2F decoy]
[1]; complex abolished by 100x unlabeled same sequence
  binding result: binds

## GGTGTCTCGGTCTCTCCGTCTCTC (double strand) [SEQ ID NO:4 shuffled]
[2]
  binding result: no binding

Reference: US6034234
